# Laboratory results taken from the supplement of paper PMC11348887.
# Counter-ions that a name gives are not always drawn. This is one part of the list. Most entries show no effect beyond the scatter of the controls.
# Test system: hPSC-derived cortical neurons (WA09)
# Assay: KCl-induced FOS+/EGR-1+ double-positive nuclei fraction z-score (KCl minus unstimulated); higher = stronger activity-induced IEG response
# Details: 5 µM; treatment: days 7-14 after plating, readout day 21
row,SMILES,KCl-induced FOS+/EGR-1+ double-positive nuclei fraction z-score
1,Oc1ccc(/C=C/c2cc(O)cc(O)c2)cc1 [Resveratrol],1.26
2,CC(C(=O)O)c1cccc(C(=O)c2ccccc2)c1 (stereo unspecified) [Ketoprofen],0.499
3,O=C1[C@H](CC[C@H](O)c2ccc(F)cc2)[C@@H](c2ccc(O)cc2)N1c1ccc(F)cc1 [Ezetimibe],0.102
4,O=c1[nH]nc(Sc2ncc([N+](=O)[O-])s2)n1-c1ccc2c(c1)OCCO2,-0.931
5,NCC(=O)Nc1ccc(-n2nc(C(F)(F)F)cc2-c2ccc3c(ccc4ccccc43)c2)cc1,-0.0149
6,Nc1ccn([C@@H]2O[C@H](CO)[C@@H](O)[C@@H]2O)c(=O)n1 [Cytarabine],1.74
7,CC(C)(C#N)c1cc(Cn2cncn2)cc(C(C)(C)C#N)c1 [Anastrozole],0.633
8,Cc1nc2ccc(NC(=O)Nc3ccnc4cccnc34)cc2o1,-0.357
9,CN(C)CCc1c[nH]c2ccc(C[C@H]3COC(=O)N3)cc12 [Zolmitriptan],-0.765
10,CN(C)CCC=C1c2ccccc2C=Cc2ccccc21 [Cyclobenzaprine HCl],0.021
11,O=C(/C=C/c1ccc(CN(CCO)CCc2c[nH]c3ccccc23)cc1)NO [LAQ824 (Dacinostat)],-0.399

# Part of the list above, reformatted.
row	SMILES	KCl-induced FOS+/EGR-1+ double-positive nuclei fraction z-score
3	O=C1[C@H](CC[C@H](O)c2ccc(F)cc2)[C@@H](c2ccc(O)cc2)N1c1ccc(F)cc1 [Ezetimibe]	0.102
4	O=c1[nH]nc(Sc2ncc([N+](=O)[O-])s2)n1-c1ccc2c(c1)OCCO2	-0.931
